{"source": "PubChem BioAssay AID504791 (Drosophila RNAi Screening Center, 2011)", "aim": "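Genes of the fly required for silencing by miRNA, siRNA or endo-siRNA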 (primary screen)", "system": "Drosophila S2-derived reporter cells", "knock-down reagent": "long dsRNA against Drosophila genes, about 150-250 ng dsRNA per well (siRNA assay); about 80-120 ng (miRNA assay)", "duration": "about 5 days (siRNA assay); about 4 days (miRNA assay)", "treatment": "copper sulfate induction of reporters: 25 µM (siRNA assay); 200 mM stated (miRNA assay), 1-2 days before reading", "read-out": "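Per-well ratio of Renilla over firefly light, expressed relative to that plate's average ratio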", "units": "stable assay Renilla, run 1 in luminescence; stable assay firefly, run 1 in luminescence", "hit rule": "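First-pass picks had plate-scaled ratios over 1.5 for the siRNA assay, over 1.6 for the miRNA assay, or under 0.6; two distinct dsRNAs had to score alike on retest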", "note": "The screen tested about 23,000 reagents; shown is an unselected part of those with a known target gene and a result. In the full data, 199 (0.86%) were called active. 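Plate-scaled ratios behind the calls are not deposited; printed light signals are raw; many rows marked increased or decreased are still called inactive.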 Unmarked entries are inactive. Reagents against one gene are numbered here. Not given: the direction of the score."}
{"target gene": "CG31517", "dsRNA no.": 1, "stable assay Renilla, run 1": 4072, "stable assay firefly, run 1": 3.81e5}
{"target gene": "CG11373", "dsRNA no.": 1, "stable assay Renilla, run 1": 7330, "stable assay firefly, run 1": 4.20e5}
{"target gene": "cpx", "dsRNA no.": 1, "stable assay Renilla, run 1": 4719, "stable assay firefly, run 1": 3.77e5}
{"target gene": "psidin", "dsRNA no.": 1, "stable assay Renilla, run 1": 7111, "stable assay firefly, run 1": 3.86e5}
{"target gene": "CG7376", "dsRNA no.": 1, "stable assay Renilla, run 1": 7687, "stable assay firefly, run 1": 5.03e5}
{"target gene": "CG31054 (retired record)", "dsRNA no.": 1, "stable assay Renilla, run 1": 8623, "stable assay firefly, run 1": 6.48e5}
{"target gene": "dnr1", "dsRNA no.": 1, "stable assay Renilla, run 1": 7554, "stable assay firefly, run 1": 6.10e5}
{"target gene": "dnr1", "dsRNA no.": 2, "stable assay Renilla, run 1": 5256, "stable assay firefly, run 1": 3.02e5}
{"target gene": "Cdc50", "dsRNA no.": 1, "stable assay Renilla, run 1": 4726, "stable assay firefly, run 1": 5.81e5}
{"target gene": "mmd", "dsRNA no.": 1, "stable assay Renilla, run 1": 5503, "stable assay firefly, run 1": 3.79e5}
{"target gene": "mmd", "dsRNA no.": 2, "stable assay Renilla, run 1": 5492, "stable assay firefly, run 1": 3.69e5}
{"target gene": "mmd", "dsRNA no.": 3, "stable assay Renilla, run 1": 6036, "stable assay firefly, run 1": 4.04e5}
{"target gene": "mmd", "dsRNA no.": 4, "stable assay Renilla, run 1": 5654, "stable assay firefly, run 1": 4.05e5}
{"target gene": "CG12851", "dsRNA no.": 1, "stable assay Renilla, run 1": 6598, "stable assay firefly, run 1": 5.01e5}
{"target gene": "kl-2", "dsRNA no.": 1, "stable assay Renilla, run 1": 5382, "stable assay firefly, run 1": 3.13e5}
{"target gene": "CG10680", "dsRNA no.": 1, "stable assay Renilla, run 1": 6263, "stable assay firefly, run 1": 4.12e5}

Next part, starting with the last 3 of the part before.
{"target gene": "CG12851", "dsRNA no.": 1, "stable assay Renilla, run 1": 6598, "stable assay firefly, run 1": 5.01e5}
{"target gene": "kl-2", "dsRNA no.": 1, "stable assay Renilla, run 1": 5382, "stable assay firefly, run 1": 3.13e5}
{"target gene": "CG10680", "dsRNA no.": 1, "stable assay Renilla, run 1": 6263, "stable assay firefly, run 1": 4.12e5}
{"target gene": "G6P", "dsRNA no.": 1, "stable assay Renilla, run 1": 6243, "stable assay firefly, run 1": 4.48e5}
{"target gene": "TwdlX", "dsRNA no.": 1, "stable assay Renilla, run 1": 4271, "stable assay firefly, run 1": 3.73e5}
{"target gene": "RpS27", "dsRNA no.": 1, "stable assay Renilla, run 1": 6422, "stable assay firefly, run 1": 2.92e5}
{"target gene": "Ntl", "dsRNA no.": 1, "stable assay Renilla, run 1": 2911, "stable assay firefly, run 1": 3.18e5}
{"target gene": "Tengl2", "dsRNA no.": 1, "stable assay Renilla, run 1": 9706, "stable assay firefly, run 1": 5.85e5}
{"target gene": "CG9632", "dsRNA no.": 1, "stable assay Renilla, run 1": 7324, "stable assay firefly, run 1": 3.93e5}
{"target gene": "CG14402", "dsRNA no.": 1, "stable assay Renilla, run 1": 7151, "stable assay firefly, run 1": 3.55e5}
{"target gene": "pins", "dsRNA no.": 1, "stable assay Renilla, run 1": 7007, "stable assay firefly, run 1": 4.53e5}
{"target gene": "Qsox1", "dsRNA no.": 1, "stable assay Renilla, run 1": 4963, "stable assay firefly, run 1": 5.51e5}
{"target gene": "Mlc2", "dsRNA no.": 1, "stable assay Renilla, run 1": 7764, "stable assay firefly, run 1": 4.78e5}
{"target gene": "Surf4", "dsRNA no.": 1, "stable assay Renilla, run 1": 7227, "stable assay firefly, run 1": 2.81e5}
{"target gene": "CG34267", "dsRNA no.": 1, "stable assay Renilla, run 1": 4767, "stable assay firefly, run 1": 3.33e5}
